Results as given in US20170101442A1.
No constants are given. Whether binding was seen depends on the method and setting. Binding calls can cover weak binding; strength is not graded here.

Molecular target: insulin-like growth factor 2 receptor (IGF2R) on rat hepatic stellate cells HSC-T6 (rat)
Test: flow cytometry, uptake of 5-FAM labelled peptide by HSC-T6 cells, 1 h

In the case of VHWDFRQWWQPS (5-FAM label (position not given)) [Peptide-431], the binding is reported as “binds”.
